Laboratory results as given in publication PMC4753479.

The chains behind the UniProt entries cited, without tags or fusion partners. Where a name states a change or a piece, a line headed by the entry shows the natural chain unless it says otherwise.
UniProt Q40704: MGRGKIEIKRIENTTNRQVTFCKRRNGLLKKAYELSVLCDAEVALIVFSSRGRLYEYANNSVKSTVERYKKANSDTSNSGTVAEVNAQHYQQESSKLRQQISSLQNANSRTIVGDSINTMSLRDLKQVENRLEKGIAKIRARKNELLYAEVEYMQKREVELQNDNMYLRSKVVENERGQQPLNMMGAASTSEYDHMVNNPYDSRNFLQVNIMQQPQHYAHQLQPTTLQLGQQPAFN

Columns and labels:
Experiment in all cases: restriction protection (CBA)
[1] = target: T1, rOsGD1-B3 (rice) (UniProt Q0D5G4); conditions: CBA: restriction enzyme buffer, 1-7 ug protein, 30 min at 37 C then 1 h digestion at 37 C, recombinant protein, probe letters rebuilt from the primers and the genome
T1 sequence (looked up): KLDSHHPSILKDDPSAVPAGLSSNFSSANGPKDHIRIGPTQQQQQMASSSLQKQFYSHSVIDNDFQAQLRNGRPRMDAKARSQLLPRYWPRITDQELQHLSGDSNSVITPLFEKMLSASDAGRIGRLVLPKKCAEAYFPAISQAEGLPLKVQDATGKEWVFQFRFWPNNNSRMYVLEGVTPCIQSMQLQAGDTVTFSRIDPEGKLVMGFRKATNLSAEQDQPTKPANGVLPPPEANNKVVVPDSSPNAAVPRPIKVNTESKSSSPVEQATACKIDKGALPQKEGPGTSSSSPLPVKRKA

[2] = target: rOsMADS3 (rice) (UniProt Q40704); conditions: NsiI, up to 7 ug; CBA: restriction enzyme buffer, 150 ng DNA, 1-7 ug protein, 15 ul, 30 min at 37 C then 1 h digestion at 37 C; recombinant protein; protein details: GST (pGEX4T-2); probe letters rebuilt from the primers and the genome
[3] = target: T2, rOsVAL2-B3 (rice) (UniProt Q6Z3U3); conditions: NsiI, same inhibitory effect as 5 ug rOsGD1-B3, 150 ng DNA in 15 ul, CBA: restriction enzyme buffer, 1-7 ug protein, 30 min at 37 C then 1 h digestion at 37 C, recombinant protein, residues 144-517, protein details: 6xHis (pGoldI), probe letters rebuilt from the primers and the genome
T2 sequence (looked up): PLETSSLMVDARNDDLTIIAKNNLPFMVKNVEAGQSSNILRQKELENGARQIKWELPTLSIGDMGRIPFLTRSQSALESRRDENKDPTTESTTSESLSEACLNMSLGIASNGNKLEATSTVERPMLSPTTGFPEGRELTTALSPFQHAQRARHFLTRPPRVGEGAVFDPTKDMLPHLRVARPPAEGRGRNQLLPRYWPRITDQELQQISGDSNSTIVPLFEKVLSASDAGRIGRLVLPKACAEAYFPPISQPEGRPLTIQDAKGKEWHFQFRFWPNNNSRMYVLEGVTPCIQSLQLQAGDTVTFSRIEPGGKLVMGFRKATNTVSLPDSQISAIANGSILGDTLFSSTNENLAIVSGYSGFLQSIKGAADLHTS

| Sequence | binding result ([1]; NsiI and MmeI, 150 ng DNA, 15 ul, residues 342-640, protein details: 6xHis (pGoldI)) | binding result [2] | binding signal [3] | binding signal ([1]; NsiI, dose for inhibition, 150 ng DNA in 15 ul, residues 342-640, protein details: 6xHis (pGoldI)) |
| --- | --- | --- | --- | --- |
| CCATGTAGGACTTTTAGCTTATGTGGCACTATATTAATTAAGAGAGAGAGTGAAGAGAGGAAGAAACTGGGTCTCATGCAAGACACAGCTTCAACACGAGAACCTATGCACTAAACACTATCAAGTTTTGTATTGGGAGAGAATAGTGTCTTCATAATATATAAAGAATAAATATGATTGATAGAGAAGAGAGATGATATATTTATTAATGGCCCACTTTAAGAGACCATAGGTTGTAGAGTGTAGTTTCTATTGTGATGTCTTATTGACATGGCACCATAGGCACTGCTTATAGACACTATGAGTTGGGACTGCCCTAAGGCGTGCATATATGCATGCAATTAATTAGTACCTCTGTTGGATTAAATTATGATTTTTTTTAAATTATCGACCCTCATGATCTCT (double strand) [M3 RY-DNA 405 bp] | binds |  |  |  |
| GCACCCAATAGAATTAGAGATCATGAGGGTCGATAATTTAAAAAAAATCATAATTTAATCTAGAAGAGGTACTAATTAATTGCATGCATATATGCACGCCTTAGGGCAGTCCCAACTCATAGTGTCTATAAGCAGTGCCTATGGTGCCATGTCAATAAGACATCACAATAGAAACTACACTCTACAACCTATGGTCTCTTAAAGTGGGCCATTAATAAATATATCATCTCTCTTCTCTATCAATCATATTTATTCTTTATATATTATGAAGACACTATTCTCTCCCAATACAAAACTTGATAGTGTTTAGTGCATAGGTTCTCGTGTTGAAGCTGTGTCTTGCATGAGACCCAGTTTCTTCCTCTCTTCACTCTCTCTCTTAATTAATATAGTGCCACATAAGCTAAAAGTCCTACATGG (double strand) [WT RY-DNA 420 bp] |  | no binding | 3 µg protein | 5 µg protein |

For some of these results: Tags and fusion partners may be left off the protein sequences shown. For some of these results: Construct, isoform or probe ends are uncertain for at least one entry. For some of these results: Negatives hold for the conditions tested. For some of these results: The direction of at least one scale is not stated here.
